Source: PubChem BioAssay AID328 (DTP/NCI, 2004)
The list is a part of this screen's results and no random one: it gathers tests that were run many times, whatever their T/C, doses with no T/C, and many T/C values between a quarter and a half above the control. Other doses and runs of a compound stand elsewhere. T/C is the treated group as % of the vehicle group. Some doses have a count of surviving animals in place of a T/C: the source files T/C as zero there, which appears to mark a toxic dose or a test without result, not a measured value. Some doses without a T/C left all or most animals alive at the check, yet need not have been tolerated: the source hardly ever lists a survival T/C far under the control, and the zero likely stands for such cases as well. Counts of survivors are from the toxicity check (mostly the fifth day) where no day follows; animals may have died later. Schedule codes are those of the source, read here as Q, the interval in days (D) or hours (H), X, the number of doses. Some entries were tested several times; the results are listed from low to high. For survival time, the PubChem record calls one and a half times the control and up active, and a quarter to a half above the control has no call in these data; cut-offs in other NCI protocols can differ. Some T/C values are followed by the survivors on the day toxicity was checked, most often the fifth; without a count, all were alive then.

System: BDF1 mice, P388 leukemia ip, median survival T/C
Experiment: NCI In Vivo Anticancer Drug Screen. Data for tumor model P388 Leukemia (intraperitoneal) in B6D2F1 (BDF1) mice
Settings: T/C endpoint: median survival time, higher T/C = longer survival
Outline: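 T/C = treated-group survival ÷ vehicle-control survival; tumour transplanted into mice before dosing.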

[1] = dose: 100.0 mg/kg/injection, schedule: Q01DX009 (ip), vehicle: Klucel (hydroxypropylcellulose) (HPC)
[2] = dose: 100.0 mg/kg/injection, schedule: Q04DX003 (ip), vehicle: Klucel (hydroxypropylcellulose) (HPC)
[3] = dose: 200.0 mg/kg/injection, schedule: Q01DX009 (ip), vehicle: Klucel (hydroxypropylcellulose) (HPC)
[4] = dose: 400.0 mg/kg/injection, schedule: Q01DX009 (ip), vehicle: Klucel (hydroxypropylcellulose) (HPC)
[5] = dose: 400.0 mg/kg/injection, schedule: Q04DX003 (ip), vehicle: Klucel (hydroxypropylcellulose) (HPC)
[6] = dose: 200.0 mg/kg/injection, schedule: Q04DX003 (ip), vehicle: saline
[7] = dose: 400.0 mg/kg/injection, schedule: Q04DX003 (ip), vehicle: saline with Tween-80
[8] = dose: 100.0 mg/kg/injection, schedule: Q04DX003 (ip), vehicle: saline with Tween-80
[9] = dose: 200.0 mg/kg/injection, schedule: Q04DX003 (ip), vehicle: saline with Tween-80
[10] = dose: 100.0 mg/kg/injection, schedule: Q01DX009 (ip), vehicle: saline with Tween-80
[11] = dose: 200.0 mg/kg/injection, schedule: Q01DX009 (ip), vehicle: saline with Tween-80
[12] = dose: 400.0 mg/kg/injection, schedule: Q01DX009 (ip), vehicle: saline with Tween-80
[13] = dose: 100.0 mg/kg/injection, schedule: Q01DX010 (ip), vehicle: saline
[14] = dose: 200.0 mg/kg/injection, schedule: Q01DX010 (ip), vehicle: saline
[15] = dose: 6.25 mg/kg/injection, schedule: Q01DX009 (ip), vehicle: saline

Structure (SMILES): O=C1C=CC(=O)N1c1ccc(Cl)cc1
- T/C (dose: 5.0 mg/kg/injection, schedule: Q01DX009 (ip), vehicle: Klucel (hydroxypropylcellulose) (HPC)): 145 % of control
- T/C (dose: 10.0 mg/kg/injection, schedule: Q01DX009 (ip), vehicle: Klucel (hydroxypropylcellulose) (HPC)): 129 and 140 % of control
- T/C (dose: 20.0 mg/kg/injection, schedule: Q01DX009 (ip), vehicle: Klucel (hydroxypropylcellulose) (HPC)): 137 % of control
- survivor count (dose: 40.0 mg/kg/injection, schedule: Q01DX009 (ip), vehicle: Klucel (hydroxypropylcellulose) (HPC)): 4 of 6
- survivor count (dose: 50.0 mg/kg/injection, schedule: Q04DX003 (ip), vehicle: Klucel (hydroxypropylcellulose) (HPC)): 1 of 6
- survivor count [1]: 0 of 6
- survivor count [2]: 0 of 6
- survivor count [3]: 0 of 6
- survivor count (dose: 200.0 mg/kg/injection, schedule: Q04DX003 (ip), vehicle: Klucel (hydroxypropylcellulose) (HPC)): 0 of 6
- survivor count [4]: 0 of 6
- survivor count [5]: 1 of 6

Structure (SMILES): O=c1oc2ccccc2n1Cc1ccc(Cl)cc1
- survivor count (dose: 12.5 mg/kg/injection, schedule: Q01DX005 (ip), vehicle: saline with Tween-80): 5 of 5
- survivor count (dose: 50.0 mg/kg/injection, schedule: Q01DX005 (ip), vehicle: saline with Tween-80): 3 of 5
- survivor count (dose: 100.0 mg/kg/injection, schedule: Q01DX005 (ip), vehicle: saline with Tween-80): 5 of 5

Structure (SMILES): COc1ccc(/C=C/C(=O)c2ccc(OC)c(OCc3ccccc3)c2)cc1OC
- survivor count (dose: 12.5 mg/kg/injection, schedule: Q01DX009 (ip), vehicle: water): 6 of 6
- T/C (dose: 400.0 mg/kg/injection, schedule: Q01DX009 (ip), vehicle: water): 128 % of control

Structure (SMILES): COCCOP(=O)(N1CC1)N1CC1
- survivor count [6]: 6 of 6
- survivor count (dose: 400.0 mg/kg/injection, schedule: Q04DX003 (ip), vehicle: saline): 0 of 6

Structure (SMILES): Cc1sc2c(c1-c1ccccc1)C(=O)CCCN2
- T/C (dose: 400.0 mg/kg/injection, schedule: Q01DX005 (ip), vehicle: saline with Tween-80): 128 % of control [5 of 6 alive]

Structure (SMILES): Cc1cc(N(CCCl)CCCl)ccc1N=Nc1ccccc1C(=O)O
- T/C (dose: 5.0 mg/kg/injection, schedule: Q01DX010 (ip), vehicle: saline): 140 % of control
- T/C (dose: 10.0 mg/kg/injection, schedule: Q01DX010 (ip), vehicle: saline): 145 % of control
- survivor count (dose: 40.0 mg/kg/injection, schedule: Q01DX010 (ip), vehicle: saline): 6 of 6

Structure (SMILES): Cn1c(CC(O)(C(F)(F)Cl)C(F)(F)Cl)cc(=O)n1-c1ccccc1
- survivor count [7]: 1 of 6

Structure (SMILES): Nc1ccccc1C(=O)OCCc1ccccc1
- T/C [3]: 135 % of control
- T/C [4]: 140 % of control

Structure (SMILES): CN([NH-])C(=S)[S-].CN([NH-])C(=S)[S-].[Ni]
- T/C [8]: 125 % of control
- T/C [9]: 125 % of control
- T/C [7]: 127 % of control

Structure (SMILES): O=C(O)c1ccc(=O)oc1
- T/C (dose: 50.0 mg/kg/injection, schedule: Q01DX009 (ip), vehicle: saline with Tween-80): 132 % of control
- T/C [10]: 128 % of control

Structure (SMILES): CCOC(=O)c1c(N)[nH]c(SSc2[nH]c(N)c(C(=O)OCC)c2C(=O)OCC)c1C(=O)OCC
- survivor count [10]: 3 of 6
- T/C [11]: 131 % of control [5 of 6 alive]
- survivor count [12]: 2 of 6

Structure (SMILES): CCCCCCCCCCCCCC(=O)O[C@@H]1[C@@H](C)[C@@]2(O)[C@@H](C=C(CO)C[C@]3(OC)C(=O)C(C)=C[C@@H]23)[C@@H]2C(C)(C)[C@]12OC(C)=O
- survivor count (dose: 0.03 mg/kg/injection, schedule: Q01DX009 (ip), vehicle: Klucel (hydroxypropylcellulose) (HPC)): 6 of 6
- survivor count (dose: 25.0 micrograms/kg/injection, schedule: Q01DX009 (ip), vehicle: gum acacia): 4 of 4

Structure (SMILES): CN(C)CCCn1c(=O)c2ccccc2c2ccccc21
- survivor count [13]: 3 of 6

Structure (SMILES): COc1cc(C(=O)c2cocc2C(=O)c2ccc3c(c2)OCO3)cc(OC)c1OC
- T/C [14]: 143 % of control
- T/C (dose: 400.0 mg/kg/injection, schedule: Q01DX010 (ip), vehicle: water): 144 % of control

Structure (SMILES): O=[N+]([O-])c1ccc(S(=O)c2ccccc2)c2c1no[n+]2[O-] (stereo not drawn)
- survivor count (dose: 90.0 mg/kg/injection, schedule: Q01DX009 (ip), vehicle: saline with Tween-80): 2 of 7

Structure (SMILES): c1nc(SSc2ncnc3nc[nH]c23)c2[nH]cnc2n1
- survivor count (dose: 3.7 mg/kg/injection, schedule: Q04DX003 (ip), vehicle: saline with Tween-80): 6 of 6
- T/C (dose: 7.5 mg/kg/injection, schedule: Q04DX003 (ip), vehicle: saline with Tween-80): 142 % of control
- T/C (dose: 25.0 mg/kg/injection, schedule: Q04DX003 (ip), vehicle: saline): 129 % of control
- survivor count (dose: 50.0 mg/kg/injection, schedule: Q04DX003 (ip), vehicle: saline with Tween-80): 6 of 6

Structure (SMILES): CC(C)(C)C[CH2][Hg][Cl]
- T/C (dose: 12.5 mg/kg/injection, schedule: Q04DX003 (ip), vehicle: saline): 130 % of control

Structure (SMILES): O=C(NCCCCOc1ccc([N+](=O)[O-])cc1Cl)c1ccc(S(=O)(=O)F)cc1
- survivor count [9]: 4 of 6

Structure (SMILES): COC(=O)C(CCC1CCCCN1)(c1ccccc1)c1ccccc1 (stereo not drawn)
- T/C (dose: 25.0 mg/kg/injection, schedule: Q01DX009 (ip), vehicle: saline): 136 % of control
- T/C (dose: 50.0 mg/kg/injection, schedule: Q01DX009 (ip), vehicle: saline): 145 % of control
- T/C [8]: 146 % of control
- survivor count (dose: 150.0 mg/kg/injection, schedule: Q04DX003 (ip), vehicle: saline with Tween-80): 1 of 6

Structure (SMILES): CC(=O)Nc1ccc(S(=O)(=O)N(CCO)c2ccccc2)cc1
- survivor count [2]: 6 of 6
- survivor count [5]: 6 of 6

Structure (SMILES): CCCCCCCCCCCCCCCCCC[N+](C)(C)C
- T/C (dose: 4.12 mg/kg/injection, schedule: Q01DX009 (ip), vehicle: saline): 145 % of control [5 of 6 alive]
- survivor count [15]: 4 of 6
- survivor count (dose: 9.37 mg/kg/injection, schedule: Q01DX009 (ip), vehicle: saline): 3 of 6 and 5 of 6
- survivor count (dose: 29.0 mg/kg/injection, schedule: Q04DX003 (ip), vehicle: saline): 4 of 6
- survivor count (dose: 45.0 mg/kg/injection, schedule: Q04DX003 (ip), vehicle: saline): 3 of 6
- survivor count (dose: 65.0 mg/kg/injection, schedule: Q04DX003 (ip), vehicle: saline): 2 of 6

Structure (SMILES): C=CCSc1ncnc2c1ncn2C1OC(CO)C(O)C1O (stereo not drawn)
- survivor count [11]: 4 of 6
- survivor count [12]: 4 of 6

Structure (SMILES): O=NNc1ccccn1
- T/C [15]: 125 % of control

Structure (SMILES): O=[N+]([O-])c1ccc(N2CCCC(n3cccc3)C2)c([N+](=O)[O-])c1 (stereo not drawn)
- survivor count [11]: 2 of 6

Structure (SMILES): CSc1ccc(C(O)CNC(C)C)cc1C (stereo not drawn)
- survivor count (dose: 200.0 mg/kg/injection, schedule: Q01DX009 (ip), vehicle: saline): 1 of 6

Structure (SMILES): C=C1C(=O)OC2C3OC(C)(CCC(O)C3COC(C)=O)CC(OC(=O)/C(=C/C)COC(C)=O)C12 (stereo not drawn)
- T/C (dose: 12.5 mg/kg/injection, schedule: Q01DX009 (ip), vehicle: Klucel (hydroxypropylcellulose) (HPC)): 132 % of control
- T/C (dose: 25.0 mg/kg/injection, schedule: Q01DX009 (ip), vehicle: Klucel (hydroxypropylcellulose) (HPC)): 132 % of control
- survivor count (dose: 50.0 mg/kg/injection, schedule: Q01DX009 (ip), vehicle: Klucel (hydroxypropylcellulose) (HPC)): 4 of 6
- survivor count [1]: 0 of 6
- survivor count [3]: 0 of 6
- survivor count [4]: 0 of 6

Structure (SMILES): OC(CCCCl)CC(O)(C(F)(F)F)C(F)(F)F (stereo not drawn)
- survivor count [7]: 4 of 6

Structure (SMILES): S=C1NC(c2ccccc2)NC(c2ccccc2)S1 (stereo not drawn)
- survivor count (dose: 400.0 mg/kg/injection, schedule: Q01DX001 (ip), vehicle: Klucel (hydroxypropylcellulose) (HPC)): 6 of 6

Structure (SMILES): c1ccc(CCN2CCC(CCc3c[nH]c4ccccc34)CC2)cc1
- T/C [13]: 127 % of control
- survivor count [14]: 3 of 7

Structure (SMILES): CCN(CC)CCOCCO
- T/C [6]: 125 % of control
